Source: patent US20260216379A1
No constants are given. Whether binding was seen depends on the method and setting. Some results given as binding are weak or reduced against the parent protein; the word gives no strength.

Protein sequences, listed by entry. Tags and fused reporters are not part of them.
UniProt Q04609: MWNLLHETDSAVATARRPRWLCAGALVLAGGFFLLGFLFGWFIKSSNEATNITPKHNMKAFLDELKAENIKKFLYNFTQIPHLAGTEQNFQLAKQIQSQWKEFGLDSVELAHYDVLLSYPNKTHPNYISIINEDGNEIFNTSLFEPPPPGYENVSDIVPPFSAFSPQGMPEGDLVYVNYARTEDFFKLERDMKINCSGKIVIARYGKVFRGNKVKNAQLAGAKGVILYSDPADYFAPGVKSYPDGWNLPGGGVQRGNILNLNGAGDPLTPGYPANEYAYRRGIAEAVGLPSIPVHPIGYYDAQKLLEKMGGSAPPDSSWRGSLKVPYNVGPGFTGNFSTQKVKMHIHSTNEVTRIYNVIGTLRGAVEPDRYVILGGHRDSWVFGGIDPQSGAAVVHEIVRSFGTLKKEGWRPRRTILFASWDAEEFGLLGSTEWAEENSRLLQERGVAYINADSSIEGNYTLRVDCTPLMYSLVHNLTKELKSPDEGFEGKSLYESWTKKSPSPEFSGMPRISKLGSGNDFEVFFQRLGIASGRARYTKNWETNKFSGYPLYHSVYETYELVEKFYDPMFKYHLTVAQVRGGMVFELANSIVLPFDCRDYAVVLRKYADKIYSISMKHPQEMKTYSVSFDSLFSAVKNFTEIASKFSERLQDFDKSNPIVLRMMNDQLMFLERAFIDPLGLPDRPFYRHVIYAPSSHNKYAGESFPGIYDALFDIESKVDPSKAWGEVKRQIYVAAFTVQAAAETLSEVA

Legend:
PSMA [1] = molecular target: PSMA (UniProt Q04609); test: indirect ELISA on coated LNCaP cell lysate, 0-100 µM agent
PSMA [2] = molecular target: PSMA (UniProt Q04609); test: fluorescence anisotropy (FIG. 8A)
PSMA [3] = molecular target: PSMA (UniProt Q04609); test: fluorescence anisotropy, fluorescein-labelled agent
PSMA [4] = molecular target: PSMA (UniProt Q04609); test: indirect ELISA on coated LNCaP cell lysate, Hill fit
PSMA [5] = molecular target: PSMA (UniProt Q04609); test: fluorescence anisotropy (FIG. 8B)
PSMA [6] = molecular target: PSMA (UniProt Q04609); test: fluorescence anisotropy, 10 nM fluorescein-labelled agent with LNCaP cell lysate
PSMA [7] = molecular target: PSMA (UniProt Q04609); test: fluorescence anisotropy (FIG. 12A)

Measured: binding

B1: ProCA32.WP.PSMA (designed binder, not shown: small tags and cut ends)
chain: MSMTDLLNAEDIKKAVGAFSATDSFDHKKFFQMVGLKKKSADDVKKVFHMLDKDKDGFIEEDELGFILKGFSPDARDLSAKETKMLMAAGDKDGDGKIGVEEWSTLVAESAEWWQPDTAHHWATLPDP
binds: PSMA [1]

B2: ProCA32.562.PSMA (designed binder, not shown: small tags and cut ends)
chain: MSMTDLLNAEDIKKAVGAFSATDSFDHKKFFQMVGLKKKSADDVKKVFHMLDKDKDGFIEEDELGFILKGFSPDARDLSAKETKMLMAAGDKDGDGKIGVEEWSTLVAESSHSFSVGSGDHSPFT
binds: PSMA [2] | PSMA [3]

B3: ProCA32.564.PSMA (designed binder, not shown: small tags and cut ends)
chain: MSMTDLLNAEDIKKAVGAFSATDSFDHKKFFQMVGLKKKSADDVKKVFHMLDKDKDGFIEEDELGFILKGFSPDARDLSAKETKMLMAAGDKDGDGKIGVEEWSTLVAESLSFFSCWLRRSFSLT
not listed: PSMA [2]
binds: all other assays above
